# Measurements reported in PubChem BioAssay AID493014 (National Center for Advancing Translational Sciences (NCATS), 2011).
# In all, about 340,000 compounds went through this assay and about 170 (0.05%) were called active. Inconclusive results, whose numbers are uncertain, are shown with a selection of clear calls. The call rests on the fitted dose curve; in most records, active means well fitted inhibition curve with a large enough effect in the signal ratio, with a control signal flat (not every such curve was filed as active); inconclusive means small, poorly fitted or top-dose-only effect, or effect the other way, or a change in a side signal; inactive means flat fitted curve, though single readings scatter; the % refers to the signal ratio. Potencies of inconclusive entries are doubtful fits and often do not repeat.
# Assay: qHTS Assay to Find Inhibitors of Chronic Active B-Cell Receptor Signaling;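 on activity change, negative = inhibition: plate controls were basal doxycycline-induced cells for no effect and cells given 10 µM MG132 for full effect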
# Details: ABC-DLBCL IkBa-CBG/CBR reporter, luminescence ratio (green luciferase fused to IkBa over red control in TMD8 lymphoma cells), 4 h; activity change, negative = inhibition: at 46.1 µM (top of the series)
# Procedure, shortened: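 Doxycycline induced both beetle luciferases in TMD8 lymphoma cells; IKK-driven degradation limits the IkappaBalpha-fused green signal, while red luminescence normalises for cell number and nonspecific effects. Compounds tested up to 46 uM, 4 hrs.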
# Potency means the concentration at half of the fitted maximal effect.
SMILES,"activity change, negative = inhibition",Potency
Cc1cc(Br)ccc1OCCCCN1CCCCC1,inactive,
Cc1ccc(-c2cnc(N)n2C)cc1C,inactive,
O=C(Nc1nc2ccccc2[nH]1)c1ccccc1F,inconclusive: 411%,
COc1cc(/C=C/c2nc3cc(Cl)ccc3c(=O)n2-c2ccc(C)cc2C)cc(OC)c1OC,inconclusive: -13.9%,
CC1CCCN(C(=O)c2ccc(-c3ccccc3Cl)o2)C1 (stereo not given),inconclusive: -12.9%,
COC(=O)[C@H](Cc1ccccc1)NC(=O)Nc1ccc(OC)cc1,inactive,
Cc1csc(NC(=O)c2ccc(S(=O)(=O)N(C)c3ccccc3)cc2)n1,inconclusive: 0.194%,
Cc1cc(Nc2c(C)n(C)n(-c3ccccc3)c2=O)n2c(nc3ccccc32)c1C#N,inconclusive: -2.52%,
CCCCOC(=O)Nc1cc(C(=O)OC)ccc1C(=O)OC,inconclusive: 5.22%,
NC(=O)c1ccc(NC(=O)c2ccccc2S(=O)(=O)c2ccccc2[N+](=O)[O-])cc1,inconclusive: 3.47%,
O=C(NCC1CCCO1)c1sc2ccccc2c1Cl (stereo not given),inconclusive: -9.91%,
O=C(O)c1c2c(nc3ccc(S(=O)(=O)N4CCC(C(=O)NCc5ccc(Cl)cc5)CC4)cc13)CCCC2,inactive,
COc1ccc(-c2cc(C(=O)O)c3ccccc3n2)c(OC)c1,inactive,
Cc1nc2c(-c3ccccc3)cnn2c(N)c1-c1ccccc1,,"inconclusive: 15.8 µM [falling, partial curve, poor fit]"
O=C(CCN1C(=O)/C(=C/c2ccc(Cl)cc2)SC1=S)NCCCn1ccnc1,inconclusive: -21.9%,
O=C(c1ccccc1)c1ccc(Cn2cc(CCCO)nn2)cc1,,"inconclusive: 17.8 µM [falling, partial curve]"
[O-][n+]1onc2c1CCc1[nH]c(-c3ccccc3)nc1-2,inconclusive: 20.8%,
CC(=O)Oc1ccc2ccccc2c1C(NC(=O)Cc1ccccc1)c1ccccc1 (stereo not given),inconclusive: -0.158%,
CC(C)CC(=O)Nc1ccc(S(=O)(=O)Nc2nccs2)cc1,inconclusive: 2.94%,
COc1cc(-c2nnc(SCC(=O)NC3CCCC3)n2C)cc(OC)c1O,inactive,
O=C(O)c1ccc(NC(=O)c2ccccc2NC(=O)c2cccc(F)c2)cc1,inactive,
Cc1cc(C)n(-c2nc(-c3ccccc3)cs2)n1,inconclusive: 17.9%,
N#CCC(=O)NCCCOC(=O)Nc1ccc(Cl)c(Cl)c1,inconclusive: -2.28%,
O=C(COC(=O)CSc1ccccc1)NCCNC(=O)COC(=O)CSc1ccccc1,inconclusive: -5.89%,
O=C(CCCN1CCC(O)(c2cccc(C(F)(F)F)c2)CC1)c1ccc(F)cc1,inactive,
CC(C)c1cc2c(c(O)c1O)[C@@]13CCCC(C)(C)C1CC2OC3=O (stereo not given in full),inactive,
O=C(Nc1ccccc1F)c1ccccc1-c1ccccc1,inconclusive: 0.305%,
COc1ccc(S(=O)(=O)Nc2ccc(F)cc2)cc1N(C)S(=O)(=O)c1ccc(Cl)cc1,inactive,

# Part of the list above, bar-delimited.
SMILES | activity change, negative = inhibition | Potency
Cc1ccc(-c2cnc(N)n2C)cc1C | inactive | 
COc1ccc(-c2cc(C(=O)O)c3ccccc3n2)c(OC)c1 | inactive | 
CC(=O)Oc1ccc2ccccc2c1C(NC(=O)Cc1ccccc1)c1ccccc1 (stereo not given) | inconclusive: -0.158% | 
O=C(COC(=O)CSc1ccccc1)NCCNC(=O)COC(=O)CSc1ccccc1 | inconclusive: -5.89% | 

# More structures follow.

SMILES,"activity change, negative = inhibition",Potency
Cc1ccc(N=Nc2cc(C)ccc2O)c(C)c1,inconclusive: 9.75%,
O=C(c1ccc(Cl)c(S(=O)(=O)N2CCCC2)c1)N1CCN(c2ccccn2)CC1,,"inconclusive: 0.731 µM [falling, partial curve, poor fit]"
O=[N+]([O-])c1cc(/C=N\O)ccc1Oc1ccc(F)cc1,,"inconclusive: 31.6 µM [falling, single point]"
O=C(O)Cn1cc(/C=C/[N+](=O)[O-])c2ccccc21,inactive,
COCCCN1C(=O)C(=O)/C(=C(/O)c2ccc(C)cc2)C1/C=C/c1ccccc1 (stereo not given),inconclusive: 5.43%,
COC(=O)Nc1nn(Cc2ccccc2F)cc1Br,inconclusive: 14%,
O=C(NCCOC(=O)c1cccs1)c1cccnc1,inactive,
CC(=O)Nc1ccc(S(=O)(=O)NCc2ccncc2)cc1,inactive,
CC(=O)Nc1sc(N/N=C\c2ccccc2)nc1-c1cccs1,,"inconclusive: 10.3 µM [falling, partial curve]"
CCOC(=O)Nc1cccc(C(=O)O)c1,,"inconclusive: 16.4 µM [falling, partial curve]"
COCCNC(=O)c1cc(-c2ccc(OC)c(OC)c2)on1,,"inconclusive: 35.5 µM [falling, single point]"
O=C(Nc1ccc(F)c(F)c1)C1CCN(S(=O)(=O)c2cccc3nonc23)CC1,inconclusive: -0.113%,
CC1(c2ccc3noc(-c4ccc(F)cc4)c3c2)OCCO1,inconclusive: -0.804%,
CC(=O)Nc1ccc(N(CC(=O)NCC2CCCO2)C(=O)CCC(=O)Nc2cc(C)on2)cc1 (stereo not given),inconclusive: -2.22%,
CC1(C)Cc2ccccc2C(N/N=C/c2ccc([N+](=O)[O-])cc2)=N1,inconclusive: 7%,
Oc1ccc(-c2cn3c(n2)SCC3)cc1,inactive,
CC(C)c1ccc(Nc2ncccc2C#N)cc1,inconclusive: 2.02%,
N#Cc1ccccc1S(=O)c1ccccc1C(=O)Nc1ccccc1 (stereo not given),inconclusive: 0.716%,
COC(=O)c1cc(NC(=O)CSc2nnc(N)s2)ccc1Cl,inconclusive: -3.01%,
COc1ccc2c(CC(=O)Nc3c(C)n(C)n(-c4ccccc4)c3=O)coc2c1,inconclusive: 3.81%,
O=C1C2C3c4ccccc4C(c4ccccc43)C2C(=O)N1c1cccnc1 (stereo not given),inconclusive: 0.31%,
O=C(N/N=C/c1c[nH]c2ccccc12)c1ccn[nH]1,,"inconclusive: 15.8 µM [falling, partial curve]"
COc1ccc(C(=O)OCC(=O)N(C)C2CCS(=O)(=O)C2)cc1S(=O)(=O)N(C)Cc1ccccc1 (stereo not given),,"inconclusive: 23.1 µM [falling, partial curve]"
Cc1ccc2c(c1)-c1c(cnn1CC(=O)N(Cc1ccco1)C1CCCCC1)CO2,inactive,
O=C(Cn1cc(S(=O)(=O)N2CCN(c3ccccc3F)CC2)c2ccccc2c1=O)NCCCN1CCCCCC1,inconclusive: 0.627%,
CCCC[C@@H](CNC)NC[C@H](Cc1ccc(O)cc1)NCCc1ccc(OCC)cc1,,"inconclusive: 22.4 µM [falling, single point]"
COc1cc2nc(N(C)C)nc(N)c2cc1OC,inconclusive: -22%,
